## Percent effect of library compounds

Data taken from ChEMBL document CHEMBL3988442, “University of Dundee, Small-Polar-MMV Screening Library” (2021).

Values are the deposited “Percent Effect”, in %. The controls that fix the scale are not given in the record; negative values are as filed. The compounds are a random part of those screened. Two or more numbers in one place are separate tests of the same structure; such repeats can differ widely.

Mtb glucose medium: 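Whole-cell growth test on Mycobacterium tuberculosis, read after 3 days in glucose-containing 7H9 medium; the read-out is not stated. Concentration: 50 µM. Direction is inferred from retests: higher values go with more growth inhibition. Of about 69,000 compounds tested this way, about 760 (1.1%) reached 50% or more in at least one test.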
Mtb cholesterol medium: 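Whole-cell growth test on Mycobacterium tuberculosis, read after 4 days in a medium based on cholesterol and the lipid DPPC; the read-out is not stated. Compounds at 50 µM. The record gives no direction; compounds that gave an IC50 in retests scored well above the rest, so higher reads as more growth inhibition. Of about 69,000 compounds tested this way, about 370 (0.54%) reached 50% or more in at least one test.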

Cc1cnc2n(c1=O)C(CC(=O)NCc1ccc(Cl)cc1)CS2 (stereo unspecified) read Mtb glucose medium: -5.486%; Mtb cholesterol medium: -23.04%.
Cc1cc(C)c(CNC(=O)N(C)Cc2cccc(C#N)c2)c(=O)[nH]1 read Mtb glucose medium: 22.19%; Mtb cholesterol medium: 10.76%.
COCC(=O)N1CCC(c2n[nH]c3nccnc23)CC1 read Mtb glucose medium: -20.97%; Mtb cholesterol medium: -11.91%.
COC(=O)CCNC(=O)c1ccc(OCc2ccccc2)nc1 read Mtb glucose medium: 7.873% and -8.372%; Mtb cholesterol medium: -15.06%.
CNC(=O)C1(CCCc2ccccn2)CN(Cc2scnc2C)C1 read Mtb glucose medium: -18.56%; Mtb cholesterol medium: -39.51%.
CCc1nc2n(n1)CC(NCc1cnc(N(CC)CC)s1)CC2 (stereo unspecified) read Mtb glucose medium: 12.01%; Mtb cholesterol medium: -11.05%.
[H][C@@]12CO[C@@H](CNC(=O)c3ccco3)[C@]1([H])CCN(c1cccc(C)n1)C2 read Mtb glucose medium: -18.67%; Mtb cholesterol medium: -15.19%.
Cc1nsc(NC(=O)N2CCN(Cc3ccc(F)cc3)C(=O)C2)n1 read Mtb glucose medium: -10.31%; Mtb cholesterol medium: 12.76%.
O=C(O)C(F)(F)F.[H][C@@]12CCN(Cc3c(C)noc3C)C[C@@]1([H])[C@H](C(=O)NCC1CC1)CCO2 read Mtb glucose medium: 26.34%; Mtb cholesterol medium: 21.9%.
COc1ccc(N2CCN(C(=O)NC(C)c3nncn3C)CC2)cc1 (stereo unspecified) read Mtb glucose medium: -32.98%; Mtb cholesterol medium: -11.35%.
O=C(c1ccc2c(c1)CCO2)N1CCN(c2ncccn2)CC1 read Mtb glucose medium: -29.42%; Mtb cholesterol medium: -10.27%.
O=C(CCC1CCCO1)N1CCc2nc(-c3cnccn3)nc(O)c2C1 (stereo unspecified) read Mtb glucose medium: 10.64%; Mtb cholesterol medium: -18.76%.
CN(Cc1nc2ccccc2o1)CC1CCCN1c1cccnn1 (stereo unspecified) read Mtb glucose medium: 2.313%; Mtb cholesterol medium: 25.29%.
O=C(Nc1ccnc(OC2CCOC2)c1)C1CCC1 (stereo unspecified) read Mtb glucose medium: -5.055% and -17.93%; Mtb cholesterol medium: -8.26%.
CCc1ccc(C2CCCCCN2C(=O)CNC(=O)C2CC2)o1 (stereo unspecified) read Mtb glucose medium: -27.02% and 15%; Mtb cholesterol medium: -11.18%.
Cc1cc(N(C)C)cc(C2CCN(S(=O)(=O)c3cccs3)C2)n1 (stereo unspecified) read Mtb glucose medium: 8.14%; Mtb cholesterol medium: 3.838% and -22.35%.
CCC(NC(=O)c1nn(C)cc1C(=O)O)c1ccc(C)cc1C (stereo unspecified) read Mtb glucose medium: -27.26%; Mtb cholesterol medium: -10.22%.
CC(=O)N1N=C(COc2ccc(Cl)cc2)OC1c1ccccc1 (stereo unspecified) read Mtb glucose medium: -14.28%; Mtb cholesterol medium: -13.69%.
COCC1CN(CC2CC2)Cc2nn(CC3CC3)cc21.O=C(O)C(F)(F)F (stereo unspecified) read Mtb glucose medium: 23.3%; Mtb cholesterol medium: -21.41%.
Cn1cc2ncn(CCC3CCN(Cc4ccccc4)C3)c(=O)c2n1 (stereo unspecified) read Mtb glucose medium: 1.523% and 14.38%; Mtb cholesterol medium: 22.06%.
CC(C)Oc1cccc(CN2CCC(c3n[nH]c4ncccc34)CC2)c1 read Mtb glucose medium: 39.45%; Mtb cholesterol medium: 20.31%.
COCCO[C@H]1CCN(Cc2cnn(C)c2)[C@H]1Cc1cccnc1 read Mtb glucose medium: 7.667%; Mtb cholesterol medium: 9.861%.
Cc1ccc(CN2Cc3c(C(=O)N(C)C)nn(C)c3C2)s1.O=C(O)C(F)(F)F read Mtb glucose medium: 21.64%; Mtb cholesterol medium: -4.027%.
CC(=O)N1CCN(C(=O)CN2CCCC2Cn2nc(C)cc2C)CC1 (stereo unspecified) read Mtb glucose medium: -64.11%; Mtb cholesterol medium: -28.53%.
O=C(O)C(F)(F)F.[H][C@@]12CO[C@@H](CNC(=O)N(C)C)[C@]1([H])CCN(Cc1cccc(F)c1)C2 read Mtb glucose medium: -4.81% and -19.21%; Mtb cholesterol medium: -20.97%.
Cc1cc(N2CCN(C(=O)c3cnn(C(C)C)c3)CC2)nc(N)n1 read Mtb glucose medium: -14.22%; Mtb cholesterol medium: 8.428%.
CN1CCc2[nH]nc(C(=O)N3CCCC4(CN(C)C(=O)O4)C3)c2C1 (stereo unspecified) read Mtb glucose medium: -1.124%; Mtb cholesterol medium: 0.6275%.
CCSc1nc(N)c(NC(=O)c2ccc(C)cc2)c(=O)[nH]1 read Mtb glucose medium: 24.64% and 3.857%; Mtb cholesterol medium: -10.32%.
COCCC(=O)N1CCCC(CCC(=O)NCc2ccccc2F)C1 (stereo unspecified) read Mtb glucose medium: -1.185%; Mtb cholesterol medium: -1.283%.
CC(C)c1cnc(CN2CCCC(c3cc(C(N)=O)[nH]n3)C2)o1 (stereo unspecified) read Mtb glucose medium: 21.97% and 4.112%; Mtb cholesterol medium: -0.4338%.
COC(=O)CNC(=O)N1CCC2(CC1)CC(c1ccccc1)CN(C)C2 (stereo unspecified) read Mtb glucose medium: -31.94%; Mtb cholesterol medium: -10.69%.
CC(C)Cc1nc(COc2ccc(N(C)C(N)=O)cc2)no1 read Mtb glucose medium: -4.106% and -3.742%; Mtb cholesterol medium: 6.522%.
O=C(Nc1ccc(CC(=O)N2CCSCC2)cc1)NC1CCCC1 read Mtb glucose medium: -20.65%; Mtb cholesterol medium: -15.24%.
CS(=O)(=O)CCNC(=O)N1CC2(CCCC2)c2ccccc21 read Mtb glucose medium: 19.05%; Mtb cholesterol medium: 20.6%.
CCn1c(N)nc2cc(C(=O)NCCc3sccc3C)cnc21 read Mtb glucose medium: 8.202% and -1.073%; Mtb cholesterol medium: -3.706%.
CN(Cc1ccsc1)Cc1nc(-c2cnccn2)no1 read Mtb glucose medium: 15.04%; Mtb cholesterol medium: 13.29%.

4 of the entries, repeated:

* COc1ccc(N2CCN(C(=O)NC(C)c3nncn3C)CC2)cc1 (stereo unspecified) | Mtb glucose medium: -32.98%; Mtb cholesterol medium: -11.35%
* CC(C)Oc1cccc(CN2CCC(c3n[nH]c4ncccc34)CC2)c1 | Mtb glucose medium: 39.45%; Mtb cholesterol medium: 20.31%
* Cn1cc2ncn(CCC3CCN(Cc4ccccc4)C3)c(=O)c2n1 (stereo unspecified) | Mtb glucose medium: 1.523% and 14.38%; Mtb cholesterol medium: 22.06%
* CCc1nc2n(n1)CC(NCc1cnc(N(CC)CC)s1)CC2 (stereo unspecified) | Mtb glucose medium: 12.01%; Mtb cholesterol medium: -11.05%